Here are results for 5 molecules from paper doi:10.1101/2022.12.23.521824.

By UniProt entry, the sequences of proteins in these tests, tags left out.
UniProt P52297: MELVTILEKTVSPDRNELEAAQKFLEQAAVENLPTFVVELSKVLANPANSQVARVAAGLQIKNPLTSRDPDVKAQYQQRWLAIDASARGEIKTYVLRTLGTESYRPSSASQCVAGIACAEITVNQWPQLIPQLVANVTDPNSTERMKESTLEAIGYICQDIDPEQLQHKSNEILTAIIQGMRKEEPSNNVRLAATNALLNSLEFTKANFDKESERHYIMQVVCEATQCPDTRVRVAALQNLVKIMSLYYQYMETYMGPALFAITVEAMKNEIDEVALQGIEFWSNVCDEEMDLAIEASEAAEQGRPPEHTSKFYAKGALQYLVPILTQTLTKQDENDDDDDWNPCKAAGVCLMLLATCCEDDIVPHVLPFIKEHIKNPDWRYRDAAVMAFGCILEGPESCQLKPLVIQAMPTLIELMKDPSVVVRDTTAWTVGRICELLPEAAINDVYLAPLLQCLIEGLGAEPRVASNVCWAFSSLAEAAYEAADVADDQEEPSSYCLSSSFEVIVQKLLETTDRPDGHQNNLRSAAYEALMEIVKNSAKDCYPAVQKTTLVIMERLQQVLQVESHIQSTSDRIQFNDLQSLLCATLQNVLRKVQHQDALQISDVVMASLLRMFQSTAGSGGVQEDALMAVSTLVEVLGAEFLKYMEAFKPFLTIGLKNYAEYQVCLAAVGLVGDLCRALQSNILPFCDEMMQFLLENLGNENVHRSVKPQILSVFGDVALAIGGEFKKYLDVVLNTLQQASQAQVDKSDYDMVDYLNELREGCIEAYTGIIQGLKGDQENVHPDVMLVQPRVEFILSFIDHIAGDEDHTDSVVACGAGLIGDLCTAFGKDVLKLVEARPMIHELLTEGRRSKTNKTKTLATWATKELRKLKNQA

Residue numbers refer to the chain shown, from its start. Numbers in names are those of the source. These are yes or no findings as the source states them, for the method shown. Some binding calls cover weakened binding; strength is not graded here. Tags and fused reporters may be left off the sequences shown.

Assay [1] addresses T1, GST-GFP-Haus8^1-150 (Xenopus laevis) (UniProt Q0IHJ3).
T1 sequence: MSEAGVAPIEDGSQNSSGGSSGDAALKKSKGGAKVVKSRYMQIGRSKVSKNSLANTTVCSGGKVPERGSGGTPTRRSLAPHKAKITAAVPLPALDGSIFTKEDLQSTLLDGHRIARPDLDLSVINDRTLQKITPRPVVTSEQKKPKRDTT
As to the kind of experiment: TIRF microscopy of binding to immobilised microtubules.

The target of assay [2] is GST-importin-β (Xenopus laevis) (UniProt P52297). As to the kind of experiment: pull-down.

Consider “GST-importin-β (from UniProt P52297 1-876)”, for which, in assay [1], the binding result is “binds”.

B1: Strep-GFP-Haus8^1-150 ΔNLS1 (K27A/K28A) (domain or fragment, UniProt Q0IHJ3 1-150)
chain: T1 sequence with K27A, K28A
Consider B1, for which the binding result in assay [2] was “binds”.

B2: Strep-GFP-Haus8^1-150 ΔNLS2 (K143A/K144A) (domain or fragment, UniProt Q0IHJ3 1-150)
chain: T1 sequence with K143A, K144A
As for B2, the binding entry in assay [2] is recorded as “binds”.

B3: Strep-GFP-Haus8^1-150 (domain or fragment, UniProt Q0IHJ3 1-150)
chain: T1 sequence
As to B3, in assay [2], the binding result is reported as “binds”.

B4: Strep-GFP-Haus8^1-150 with mutations to both NLS sites (K27A/K28A and K143A/K144A) (domain or fragment, UniProt Q0IHJ3 1-150)
chain: T1 sequence with K27A, K28A, K143A, K144A
On to B4, for which, in assay [2], the binding result was “binds”.
